Source: doi:10.1101/2023.08.23.554407
These are yes or no findings as the source states them, for the method shown. In cells and extracts the contact can be indirect. Some binding calls cover weakened binding; strength is not graded here.

Amino acid sequences for entries named in this document (tags omitted).
UniProt Q9UPY3: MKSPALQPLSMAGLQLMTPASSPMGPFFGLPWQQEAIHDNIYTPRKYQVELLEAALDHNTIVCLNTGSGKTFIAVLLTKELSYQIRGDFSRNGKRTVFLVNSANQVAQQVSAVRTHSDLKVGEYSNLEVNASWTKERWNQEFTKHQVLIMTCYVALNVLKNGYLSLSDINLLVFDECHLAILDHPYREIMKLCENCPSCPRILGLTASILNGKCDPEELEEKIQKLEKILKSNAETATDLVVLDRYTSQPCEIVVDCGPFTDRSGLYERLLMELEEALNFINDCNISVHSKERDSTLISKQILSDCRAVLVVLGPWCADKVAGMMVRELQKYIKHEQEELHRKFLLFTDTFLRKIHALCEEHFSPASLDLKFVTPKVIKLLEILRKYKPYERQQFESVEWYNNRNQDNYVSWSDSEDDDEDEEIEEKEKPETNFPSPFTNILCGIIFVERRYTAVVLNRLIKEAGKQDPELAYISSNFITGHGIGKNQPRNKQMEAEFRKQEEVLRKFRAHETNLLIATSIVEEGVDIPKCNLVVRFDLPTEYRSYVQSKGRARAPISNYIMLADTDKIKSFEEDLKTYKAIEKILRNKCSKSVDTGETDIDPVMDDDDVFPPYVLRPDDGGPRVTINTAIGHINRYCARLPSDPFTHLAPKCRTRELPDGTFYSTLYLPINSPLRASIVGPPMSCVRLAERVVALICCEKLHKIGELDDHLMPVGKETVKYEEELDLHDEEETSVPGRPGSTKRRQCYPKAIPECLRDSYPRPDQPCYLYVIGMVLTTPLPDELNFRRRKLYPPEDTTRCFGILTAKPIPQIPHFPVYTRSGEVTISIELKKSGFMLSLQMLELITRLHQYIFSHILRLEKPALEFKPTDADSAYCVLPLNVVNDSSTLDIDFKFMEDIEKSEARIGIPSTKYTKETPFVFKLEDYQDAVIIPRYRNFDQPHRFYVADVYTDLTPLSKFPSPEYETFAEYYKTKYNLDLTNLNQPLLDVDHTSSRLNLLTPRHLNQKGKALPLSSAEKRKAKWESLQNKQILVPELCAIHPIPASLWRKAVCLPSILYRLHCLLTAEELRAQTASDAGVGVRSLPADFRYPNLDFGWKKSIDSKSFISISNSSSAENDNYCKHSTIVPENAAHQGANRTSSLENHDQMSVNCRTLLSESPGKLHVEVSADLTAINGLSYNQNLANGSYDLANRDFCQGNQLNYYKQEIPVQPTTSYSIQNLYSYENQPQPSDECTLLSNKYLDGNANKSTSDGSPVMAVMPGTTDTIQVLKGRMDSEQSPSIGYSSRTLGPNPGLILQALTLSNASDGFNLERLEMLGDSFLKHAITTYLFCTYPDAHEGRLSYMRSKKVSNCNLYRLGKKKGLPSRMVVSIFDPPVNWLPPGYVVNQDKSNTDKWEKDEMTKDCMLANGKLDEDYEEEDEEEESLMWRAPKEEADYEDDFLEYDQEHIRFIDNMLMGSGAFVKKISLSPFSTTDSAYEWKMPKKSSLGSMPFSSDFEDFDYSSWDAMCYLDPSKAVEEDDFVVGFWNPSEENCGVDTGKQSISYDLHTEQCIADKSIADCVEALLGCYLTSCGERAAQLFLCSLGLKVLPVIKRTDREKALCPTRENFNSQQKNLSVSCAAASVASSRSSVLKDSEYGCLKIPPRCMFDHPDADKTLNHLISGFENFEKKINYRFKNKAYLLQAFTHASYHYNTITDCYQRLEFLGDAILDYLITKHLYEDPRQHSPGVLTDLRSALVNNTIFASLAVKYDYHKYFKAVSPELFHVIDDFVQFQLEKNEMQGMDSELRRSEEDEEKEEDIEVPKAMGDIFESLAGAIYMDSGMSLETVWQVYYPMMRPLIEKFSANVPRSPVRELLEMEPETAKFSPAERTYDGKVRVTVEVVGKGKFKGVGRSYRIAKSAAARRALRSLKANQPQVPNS
UniProt P19525: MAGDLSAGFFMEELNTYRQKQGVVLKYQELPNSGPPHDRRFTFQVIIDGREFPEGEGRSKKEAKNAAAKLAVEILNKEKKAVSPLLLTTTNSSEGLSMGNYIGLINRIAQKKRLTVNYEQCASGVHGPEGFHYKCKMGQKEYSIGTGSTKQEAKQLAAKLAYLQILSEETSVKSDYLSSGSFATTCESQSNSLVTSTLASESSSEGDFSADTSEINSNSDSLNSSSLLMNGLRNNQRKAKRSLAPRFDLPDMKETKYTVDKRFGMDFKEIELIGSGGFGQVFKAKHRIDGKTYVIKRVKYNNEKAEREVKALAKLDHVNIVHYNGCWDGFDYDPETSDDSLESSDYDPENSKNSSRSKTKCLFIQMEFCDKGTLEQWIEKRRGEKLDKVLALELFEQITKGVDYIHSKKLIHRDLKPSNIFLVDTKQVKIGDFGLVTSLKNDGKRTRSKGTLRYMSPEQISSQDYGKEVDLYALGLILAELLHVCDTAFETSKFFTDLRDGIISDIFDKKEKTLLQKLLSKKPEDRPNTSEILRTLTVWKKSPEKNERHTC

B1: PACT (protein, UniProt O75569 1-313)
chain: MSQSRHRAEAPPLEREDSGTFSLGKMITAKPGKTPIQVLHEYGMKTKNIPVYECERSDVQIHVPTFTFRVTVGDITCTGEGTSKKLAKHRAAEAAINILKANASICFAVPDPLMPDPSKQPKNQLNPIGSLQELAIHHGWRLPEYTLSQEGGPAHKREYTTICRLESFMETGKGASKKQAKRNAAEKFLAKFSNISPENHISLTNVVGHSLGCTWHSLRNSPGEKINLLKRSLLSIPNTDYIQLLSEIAKEQGFNITYLDIDELSANGQYQCLAELSTSPITVCHGSGISCGNAQSDAAHNALQYLKIIAERK

Target: Flag-HA-tagged human Dicer WT (human) (UniProt Q9UPY3)
Experiment: co-IP

Molecule	binding
dsRNA-activated protein kinase PKR (from UniProt P19525 1-551) (enzyme)	binds
B1	binds
